# Library screening results

From ChEMBL document CHEMBL3988442, “University of Dundee, Small-Polar-MMV Screening Library” (2021).

The filed quantity is “Percent Effect” (%). The record does not define 0% and 100%; most values in the screen are far below 50% and negative numbers occur (in some assays of this library far below -100). The compounds are a random part of those screened. A dash means the value is not listed here; it may have been measured.

A: 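Whole-cell assay for inhibitors of Mycobacterium tuberculosis growth, labelled Cornell in the record; the read-out is not stated. The concentration is filed as 10 mM, unlikely as a test dose, so the dose is not known. The record gives no direction; compounds strong in two other growth screens of this library score well above the rest, so higher reads as stronger inhibition. About 53,000 compounds were tested under these conditions; 1.7% (about 900) showed 50% or more at least once.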
B: 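Assay on Mycobacterium tuberculosis, filed only as a heat shock assay from Cornell; the read-out is not stated. The concentration is filed as 10 mM, unlikely as a test dose, so the dose is not known. Higher reads as stronger inhibition (inferred: compounds with an IC50 in retests scored well above the rest). Of about 69,000 compounds tested this way, about 930 (1.4%) reached 50% or more in at least one test.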

| SMILES | A | B |
|---|---|---|
| `Cc1ccc(C(=O)N2CCCC(Nc3ccc(F)cc3)C2)cc1` (centres undefined) | 1.868 | -8.86 |
| `COC(=O)Cn1c(=O)nc2n1C(=O)N(c1ccc(Br)cc1)C2` | 44.37 | 18.41 |
| `COC(=O)Cn1nc(-c2ccccc2F)ccc1=O` | -14.4 | -5.816 |
| `CS(=O)(=O)N1CCCC(Cc2ccnc3ccncc23)CC1` (centres undefined) | -28.13 | 0.09513 |
| `CCN1CCN(c2ncc3c(n2)CN(c2cnn(CC)c2)C3=O)CC1` | - | -10.69 |
| `CCc1cc(N2CCC3(CCCNC3=O)C2)nc(N2CCOCC2)n1` (centres undefined) | 5.066 | 3.508 |
| `Cc1ccc(C(=O)NCC(O)c2ccc(Cl)s2)c(=O)[nH]1` (centres undefined) | -15.63 | -3.299 |
| `Cc1ccccc1C(C(=O)N(C)CCc1cn[nH]c1)N(C)C` (centres undefined) | -28.33 | 5.339 |
| `CN1CCN(CCCNC(=O)C2CCCCC2)CC1` | -26.86 | 6.554 |
| `Cc1nc(C)n(CC2CCCN2Cc2cc(-c3cccs3)on2)n1` (centres undefined) | - | 5.845 |
| `Nc1ncc(CN2C[C@H](C3CC3)[C@@H](N)C2)cn1` | 23.93 | -60.84 |
| `CN(C)S(=O)(=O)N1CCCC(C)(c2ncc(C(N)=O)s2)C1` (centres undefined) | 2.475 | 14.27 |
| `CC(C)c1nnc2n1CCN(C(=O)c1cccc(C(F)(F)F)c1)C2` | - | -11.51 |
| `NC(=O)Cn1c(CO)cnc1SCC(=O)NCc1ccccc1Cl` | -29.8 | -16.62 |
| `CNC(=O)[C@@H]1C[C@H](n2cc(-c3ccc(CN4CC=CC4)cc3)nn2)CN1` | - | -26.57 |
| `Cc1nnsc1C(=O)N1CCCC(c2nccn2Cc2cscn2)C1` (centres undefined) | 14.68 | 7.321 |
| `O=C(NCc1nncn1C1CC1)C1(c2ccc(F)cc2)CCCC1` | -6.163 | -44.7 |
| `Fc1ccccc1C1NCCc2cc3c(cc21)OCCO3` (centres undefined) | -22.9 | -4.739 |
| `O=C1OCCN1c1cccc(CNS(=O)(=O)Cc2ccc(F)cc2)c1` | - | 0.2601 |
| `O=C(C1CCN(S(=O)(=O)N2CCCC2)CC1)N1CCC2(CC1)OCCO2` | 33.53 | 11.66 |
| `COCc1nccc(C2CCCN(Cc3ccc(SC)cc3)C2)n1` (centres undefined) | -4.264 | 14.22 |
| `O=C(NCCN1CCCCC1)c1nc2ccccc2c(=O)[nH]1` | - | -11.5 |
| `O=S(=O)(CCCN1CCCC(Cn2cncn2)C1)c1ccccc1` (centres undefined) | - | -25.13 |
| `CC(=O)NCC(=O)N1CC[C@H](OCC2CC2)[C@@H]1Cc1cccnc1.O=C(O)C(F)(F)F` | 17.73 | 13.99 |
| `O=C(CNC(=O)c1c[nH]c2ccccc12)NCCCn1ccnc1` | 7.982 | -14.71 |
| `Cc1nc(-c2ccc(Cl)s2)sc1C(=O)N(C)CC(N)=O` | -9.721 | 4.28 |
| `COCCCC1(CO)CCCN(CCc2ccccc2)C1` (centres undefined) | -3.922 | -1.881 |
| `CS(=O)(=O)N1CCN(Cc2cccs2)CC(C(N)=O)C1` (centres undefined) | 10.86 | -2.309 |
| `O=C(O)C(F)(F)F.[H][C@@]12CN(Cc3ccc4c(c3)OCO4)C[C@@H](C(=O)NC(C)C)[C@]1([H])CCO2` | 10.89 | -8.877 |
| `CC1N(c2cnn(C)c2)C(=O)COC12CCN(c1ncccn1)CC2.O=C(O)C(F)(F)F` (centres undefined) | 6.154 | -5.736 |
| `CNC(=O)CS(=O)(=O)Cc1coc(-c2ccc(F)cc2)n1` | - | -3.578 |
| `O=S(=O)(c1cn[nH]c1)N1CCCC1c1cc[nH]n1` (centres undefined) | -30.74 | 5.586 |
| `CCNC(=O)NC1CCC(Oc2ccccc2C#N)CC1` (centres undefined) | -26.87 | -11.05 |
| `O=C(O)C(F)(F)F.c1csc(CN2CCCn3cnc(COCC4CC4)c3C2)n1` | 19.14 | -31.89 |
| `Cc1cccc(CN2CCc3onc(Cn4cccc4)c3C2)n1.O=C(O)C(F)(F)F` | 45.92 | 14.85 |
| `Cc1cc(N2CCN(C(=O)c3cn(C)c4ccccc34)CC2)nc(C)n1` | -1.461 | -3.655 |
| `COc1cccc(CN2CCCCCC2c2cccs2)c1O` (centres undefined) | 38.44 | 12.93 |
| `O=C(NCCc1cccs1)N1CCCC1CCCO` (centres undefined) | -11.55 | 10.12 |
| `COc1ccccc1N1CCN(C(=O)CSC(C)C)C(C)C1` (centres undefined) | 18.8 | 24.23 |
| `CCN(CC)C1CCN(C(=O)NCc2c(C)noc2C)CC1` | 41.18 | -7.424 |
| `CC(=O)N1CCN(C(=O)c2ccc3ccn(C)c3c2)CC1` | 10.75 | -18.06 |
| `COc1cc2c(cc1CCC(=O)O)CCC2` | -42.03 | -19.78 |
| `Cc1ccc(C(=O)N(C)CC(=O)Nc2cccc(C)n2)cn1` | -20.23 | 14.7 |
| `CN(CCc1ccccn1)C(=O)c1cn(CCN2CCNCC2)nn1` | 3.581 | -50.29 |
| `COc1ccc(N(C)C(=O)C2CN(C)CCO2)cc1F` (centres undefined) | -7.488 | 11.67 |
| `CC1c2cccn2CCN1C(=O)CCc1nc(-c2ccccc2)no1` (centres undefined) | 50.68 | 21.93 |
| `COCCNC(=O)Nc1ccc(-n2cncn2)c(F)c1` | - | -7.798 |
| `[H][C@]12CC[C@]([H])(CN(C)C1)N(Cc1ccccc1OCCN1CCOCC1)C2` | - | -132.5 |
| `Cc1cccc(CN2CCOC(C)(C(=O)N3CCOCC3)C2)n1` (centres undefined) | -39 | 32.95 |
| `Cc1ccnc(NC(=O)c2[nH]nc(C(C)C)c2Br)c1` | 4.407 | 68.96 |
| `COc1ccc(OCc2nc(C(=O)N3CCC(NC(C)=O)C3)co2)cc1` (centres undefined) | 30.98 | -1.161 |
| `Cc1ccccc1CS(=O)(=O)NCCCN1CCCCC1` | -13.37 | -1.666 |
| `Cn1ccc(C(=O)N2CCOC(c3ccc(C(N)=O)cn3)C2)n1` (centres undefined) | -3.368 | 2.984 |
| `COCCc1noc(CNCC2CCCN2c2cccnn2)n1` (centres undefined) | - | 3.65 |
| `C[C@H](O)CNc1cc(-c2ccncc2)ncn1` | -52.37 | -8.136 |
| `COCCN1CCC2(CCN(Cc3ccc(OC)cc3)CC2)C1=O.O=C(O)C(F)(F)F` | -13.5 | 1.873 |
| `COCc1nc(C(=O)N2CCCC2c2noc(C(C)C)n2)cs1` (centres undefined) | - | 2.087 |
| `CC(C)(C(=O)NCC(=O)N1CCCC1)c1ccccc1F` | 2.274 | 2.05 |
| `Cc1cc(C(=O)OCC2CCCN2C(N)=O)c(C)o1` (centres undefined) | -13.3 | -23.73 |

7 of the entries, repeated:

{"smiles": "CC(C)c1nnc2n1CCN(C(=O)c1cccc(C(F)(F)F)c1)C2", "B": -11.51}
{"smiles": "Cc1cccc(CN2CCOC(C)(C(=O)N3CCOCC3)C2)n1", "stereo": "centres undefined", "A": -39, "B": 32.95}
{"smiles": "CCN(CC)C1CCN(C(=O)NCc2c(C)noc2C)CC1", "A": 41.18, "B": -7.424}
{"smiles": "COC(=O)Cn1nc(-c2ccccc2F)ccc1=O", "A": -14.4, "B": -5.816}
{"smiles": "COc1ccc(N(C)C(=O)C2CN(C)CCO2)cc1F", "stereo": "centres undefined", "A": -7.488, "B": 11.67}
{"smiles": "CNC(=O)CS(=O)(=O)Cc1coc(-c2ccc(F)cc2)n1", "B": -3.578}
{"smiles": "CC(C)(C(=O)NCC(=O)N1CCCC1)c1ccccc1F", "A": 2.274, "B": 2.05}